In PMC9046089, “CCNE1 amplification is synthetic lethal with PKMYT1 kinase inhibition” (Nature, 2022):
Values joined by “and” are separate entries in the source; they are usually repeats but may differ in a detail not shown here. Equal entries are not always repeated. Further values from the same series stand in other lists.

Experiments:
Assay type in all cases: in vivo, mouse
[1] = Body weight change of tumour-bearing mice; settings: for Change in body weight (%) OVCAR3: OVCAR3 tumour-bearing mice, 20mg/kg (BID)
Method: (§1) Gemcitabine was administered once weekly intraperitoneally in saline. Animals were monitored for tumour volume, clinical signs and body weight three times per week. Tumour volume was measured using a digital calliper and calculated using the formula 0.52 × L × W^2, where L is length and W is width. Response to treatment was evaluated for tumour growth inhibition (% TGI). […] TV is tumour volume and subscripts indicate treatment group and time of sampling. According to NIACC and IACUC approved animal protocols, mice were euthanized as soon as their tumour volume exceeded 2,000 mm^3. Change in body weight (BW) was calculated using the formula: %BW change = (BWlast − BWday0/BWday0) × 100. BW change was calculated based on individual body weight changes relative to day 0. Statistical significance relative to vehicle control or other test groups was established by one-way ANOVA followed by Fisher’s least significant difference test for multiple groups and unpaired t-test for two group comparisons (GraphPad Prism v9.0). Investigators were not blinded during data collection and analysis.

[2] = tested on: SUM149PT xenografts; assay: Cell line-derived xenograft, tumour growth; settings: individual animals
Method: (§2) HCC1569, OVCAR3 and SUM149PT cells were implanted at 5 × 10^6 cells per mouse into the right flanks of female CB17-SCID, SCID-beige and NOD-SCID mice respectively (5–7 weeks old; Charles River), in 1:1 Matrigel:medium (Matrigel Corning, cat. no. CB35248).
as §1

[3] = tested on: OVCAR3 xenografts; assay: Cell line-derived xenograft, tumour growth
Method: as §2, §1

Cc1cc2c(C(N)=O)c(N)n(-c3c(C)ccc(O)c3C)c2nc1C [RP-6306]
Change in body weight (%) OVCAR3 ([1]; time 11, individual animals, 20 mg/kg): -3.977% and -0.9901% and -2.857% and -1.818% and 9.424% and 0.4739% and 0.578% and -4.63%
Change in body weight (%) OVCAR3 ([1]; time 21, individual animals, 20 mg/kg): -2.273% and -4.9505% and -4.7619% and -5.909% and 9.424% and -2.37% and -5.202% and -10.1852%
Change in body weight (%) OVCAR3 ([1]; time 23, individual animals, 20 mg/kg): -6.25% and -12.3762% and -7.143% and -10.9091% and 9.424% and -11.3744% and -8.671% and -7.87%
Change in body weight (%) PA1443 PDX ([1]; 7.5mg/kg (BID), time 0, individual mice): 0%
Change in body weight (%) PA1443 PDX ([1]; 7.5mg/kg (BID), time 3, individual mice, 7.5 mg/kg): -3.162% and -3.629% and -4.104% and -2.6616% and -3.061% and -2.39% and 1.667% and 0.3906%
Change in body weight (%) PA1443 PDX ([1]; 7.5mg/kg (BID), time 6, individual mice, 7.5 mg/kg): -3.953% and -2.016% and -1.493% and -5.703% and -2.721% and -2.39% and 1.25% and 1.172%
Change in body weight (%) PA1443 PDX ([1]; 7.5mg/kg (BID), time 9, individual mice, 7.5 mg/kg): -1.976% and -3.226% and -1.493% and -7.985% and 0.3401% and -0.7968% and 1.25% and 2.344%
Change in body weight (%) PA1443 PDX ([1]; 7.5mg/kg (BID), time 13, individual mice, 7.5 mg/kg): -1.581% and -4.032% and -4.478% and -4.943% and -2.041% and -3.187% and -0.4167% and -1.5625%
Change in body weight (%) PA1443 PDX ([1]; 7.5mg/kg (BID), time 27, individual mice, 7.5 mg/kg): -0.3953% and -2.016% and -2.985% and -4.183% and -2.041% and -3.984% and -0.8333% and 0%
Change in body weight (%) PA1443 PDX ([1]; 7.5mg/kg (BID), time 30, individual mice, 7.5 mg/kg): 0.7905% and -0.8065% and -1.1194% and -3.042% and -1.361% and -4.382% and -0.8333% and 1.172%
Change in body weight (%) PA1443 PDX ([1]; 7.5mg/kg (BID), time 34, individual mice, 7.5 mg/kg): 1.581% and -1.21% and 1.1194% and -2.6616% and -2.041% and -3.586% and 2.917% and 1.5625%
Change in body weight (%) PA1443 PDX ([1]; 7.5mg/kg (BID), time 37, individual mice, 7.5 mg/kg): 1.186% and -2.823% and -1.866% and -4.183% and -5.102% and -3.187% and -1.25% and 1.5625%
Change in body weight (%) PA1443 PDX ([1]; 7.5mg/kg (BID), time 41, individual mice, 7.5 mg/kg): 1.581% and -1.21% and 0.7463% and -3.042% and -3.061% and -3.984% and -0.8333% and 4.297%
Change in body weight (%) PA1443 PDX ([1]; 7.5mg/kg (BID), time 44, individual mice, 7.5 mg/kg): -1.976% and -4.839% and -2.239% and -4.563% and -2.041% and -5.179% and 0% and 1.5625%
Change in body weight (%) PA1443 PDX ([1]; 7.5mg/kg (BID), time 48, individual mice, 7.5 mg/kg): -0.3953% and -1.6129% and 0.3731% and -2.6616% and -4.7619% and -4.781% and -1.25% and -1.5625%
Change in body weight (%) PA1443 PDX ([1]; 20 mg/kg (BID), time 0, individual mice): 0%
Change in body weight (%) PA1443 PDX ([1]; 20 mg/kg (BID), time 3, individual mice, 20 mg/kg): -3.6% and -2.672% and -1.21% and -7.317% and 0% and -0.3759% and 0.7692% and -1.1194%
Change in body weight (%) PA1443 PDX ([1]; 20 mg/kg (BID), time 6, individual mice, 20 mg/kg): -8.8% and -3.053% and -1.6129% and -9.7561% and -4.981% and -6.015% and -5.385% and -3.358%
Change in body weight (%) PA1443 PDX ([1]; 20 mg/kg (BID), time 9, individual mice, 20 mg/kg): -7.6% and 0.3817% and -0.8065% and -8.13% and -11.4943% and -10.5263% and -10% and -2.612%
Change in body weight (%) PA1443 PDX ([1]; 20 mg/kg (BID), time 13, individual mice, 20 mg/kg): -4% and 0.7634% and -2.823% and -9.35% and -5.364% and -6.015% and -3.077% and -3.358%
Change in body weight (%) PA1443 PDX ([1]; 20 mg/kg (BID), time 27, individual mice, 20 mg/kg): -7.28% and -7.5188% and -11.5385% and -10.8209%
Change in body weight (%) PA1443 PDX ([1]; 20 mg/kg (BID), time 30, individual mice, 20 mg/kg): -2.8% and -0.7634% and -2.823% and -9.35% and -5.747% and -9.023% and -5% and -5.224%
Change in body weight (%) PA1443 PDX ([1]; 20 mg/kg (BID), time 34, individual mice, 20 mg/kg): -5.2% and -8.015% and -0.4032% and -6.911% and -4.5977% and -10.5263% and -3.462% and -3.358%
Change in body weight (%) PA1443 PDX ([1]; 20 mg/kg (BID), time 37, individual mice, 20 mg/kg): -7.2% and -6.107% and -1.21% and -9.35% and -10.728% and -14.6617% and -1.154% and -5.97%
Change in body weight (%) PA1443 PDX ([1]; 20 mg/kg (BID), time 41, individual mice, 20 mg/kg): -3.2% and -3.817% and -1.21% and -9.7561% and -5.747% and -9.774% and 1.154% and -6.716%
Change in body weight (%) PA1443 PDX ([1]; 20 mg/kg (BID), time 44, individual mice, 20 mg/kg): -2.4% and -2.672% and -4.435% and -6.911% and -4.5977% and -3.7594% and 6.154% and -4.851%
Change in body weight (%) PA1443 PDX ([1]; 20 mg/kg (BID), time 48, individual mice, 20 mg/kg): -4.4% and -0.7634% and -2.823% and -6.911% and -6.13% and -10.5263% and -5.769% and -7.836%
SUM149PT tumor volume ([2]; 7.5mg/kg (BID), time 11): 358.158 mm3 and 663.416 mm3 and 546.465 mm3 and 308.22 mm3
SUM149PT tumor volume ([2]; 7.5mg/kg (BID), time 13): 295.4 mm3 and 663.261 mm3 and 574.941 mm3 and 343.235 mm3 and 525.236 mm3 and 880.403 mm3 and 780.601 mm3 and 208.875 mm3
SUM149PT tumor volume ([2]; 20mg/kg (BID), time 11): 410.171 mm3 and 257.301 mm3 and 441.769 mm3 and 334.466 mm3 and 393.657 mm3 and 419.579 mm3 and 459.601 mm3 and 325.008 mm3
SUM149PT tumor volume ([2]; 20mg/kg (BID), time 13): 555.779 mm3 and 249.046 mm3 and 462.32 mm3 and 445.05 mm3 and 595.457 mm3 and 428.012 mm3 and 538.727 mm3 and 315.395 mm3
tumour volume, individual mice ([3]; 1mg/kg (BID), day 0): 92.6471 and 90.2498 and 109.339 and 149.891 and 68.8608 and 81.9745 and 123.088
tumour volume, individual mice ([3]; 1mg/kg (BID), day 3): 125.358 and 104.379 and 172.798 and 154.176 and 125.714 and 98.4324 and 124.276
tumour volume, individual mice ([3]; 1mg/kg (BID), day 7): 200.621 and 143.492 and 193.492 and 211.953 and 203.152 and 155.672 and 208.83
tumour volume, individual mice ([3]; 1mg/kg (BID), day 9): 223.137 and 154.086 and 337.43 and 251.635 and 193.648 and 180.53 and 218.005
tumour volume, individual mice ([3]; 1mg/kg (BID), day 11): 194.265 and 143.752 and 231.251 and 338.458 and 262.902 and 236.002 and 328.889
tumour volume, individual mice ([3]; 1mg/kg (BID), day 21): 775.036
tumour volume, individual mice ([3]; 1mg/kg (BID), day 23): 503.911 and 523.026 and 480.084 and 624.485 and 407.476 and 392.541 and 615.788
tumour volume, individual mice ([3]; 7.5mg/kg (BID), day 0): 129.177 and 108.667 and 77.2746 and 81.8339 and 84.4147 and 69.6566 and 93.7673
tumour volume, individual mice ([3]; 7.5mg/kg (BID), day 3): 161.59 and 126.605 and 133.423 and 122.534 and 156.538 and 102.529 and 113.571
tumour volume, individual mice ([3]; 7.5mg/kg (BID), day 7): 207.751 and 177.648 and 163.58 and 169.756 and 150.25 and 85.9794 and 170.047
tumour volume, individual mice ([3]; 7.5mg/kg (BID), day 9): 214.255 and 151.142 and 171.225 and 165.402 and 177.587 and 120.432 and 155.548
tumour volume, individual mice ([3]; 7.5mg/kg (BID), day 11): 215.875 and 313.281 and 187.666 and 153.934 and 188.63 and 107.074 and 161.675
tumour volume, individual mice ([3]; 7.5mg/kg (BID), day 21): 246.981 and 647.593 and 223.015 and 129.565 and 320.873 and 169.097 and 210.974
tumour volume, individual mice ([3]; 7.5mg/kg (BID), day 23): 291.041 and 499.105 and 191.798 and 199.034 and 384.082 and 149.022 and 232.5
tumour volume, individual mice ([3]; 20mg/kg (BID), day 0): 81.7058 and 97.0092 and 112.17 and 169.068 and 90.1647 and 98.1431 and 86.3574 and 66.9197
tumour volume, individual mice ([3]; 20mg/kg (BID), day 3): 140.722 and 115.997 and 158.945 and 302.152 and 97.2429 and 116.597 and 175.702 and 110.491
tumour volume, individual mice ([3]; 20mg/kg (BID), day 7): 177.544 and 135.884 and 217.924 and 207.405 and 169.547 and 223.631 and 201.135 and 82.0663
tumour volume, individual mice ([3]; 20mg/kg (BID), day 9): 138.767 and 157.124 and 198.336 and 279.028 and 183.519 and 128.599 and 206.388 and 181.897
tumour volume, individual mice ([3]; 20mg/kg (BID), day 11): 157.401 and 103.731 and 171.317 and 358.522 and 193.538 and 121.481 and 259.637 and 84.7721
tumour volume, individual mice ([3]; 20mg/kg (BID), day 21): 169.574 and 153.235 and 202.602 and 547.272 and 204.706 and 150.482 and 155.016 and 59.9919
tumour volume, individual mice ([3]; 20mg/kg (BID), day 23): 205.906 and 201.206 and 240.027 and 326.226 and 250.311 and 76.6568 and 268.223 and 192.047
